Test results reported in patent US6927234B2, “Xanthone derivatives, method of production thereof, and pharmaceutical composition containing the same” (Kuboyama Bio Ken Inc., priority 2003, dated 2005).
Part of at least one peptide drawing is inferred or uncertain, most often the ends. Where no end group is shown, it is not given here.

Tested on: Sarcoma 180
Assay: Sarcoma 180 assay, single intraperitoneal dose (Example 7)
Type: in vivo, Swiss-Webster mice
Details: 1 mg/kg body weight, single intraperitoneal injection
Excerpt: [table] The tumor stock was a Sarcoma 180 which was started in the laboratory from an American Type Culture Collection. This stock culture has been passed at weekly intervals as an ascites in non-treated Swiss-Webster mice. The current studies were all carried out with Swiss-Webster mice obtained from Animal Technologics Ltd., Kent, Wash. To prepare the inoculum, the ascites fluid from a mouse with a 7-10 day ascites is aspirated using a sterile technique. […] This was the tumor suspension that was then injected into the mice. The final dilution was plated on trypticase soy agar to determine if it was free of contamination. One tenth (0.1 ml) of the above suspension was inoculated into the left hind leg muscle (hamstring muscle mass) of each mouse. The inoculated mice were placed into one large cage and then randomly segregated into groups of five mice. The mice were housed in shoe box cages on wood shavings with free access to water and laboratory chow. The mice were weighed on the day of inoculation, on day 7, day 10, and at time of sacrifice. Treatment of the mice was initiated the day after transplant. At the end of the observation period, the mice were sacrificed by ether anesthesia. The skin over the left hind leg was removed to expose the tumor and the leg and tumor were removed at the hip joint. Any residual skin was removed and the legs with tumors were weighed individually. […]

Q: With “YIGSR [Compound of Example 2, Tyr-Ile-Gly-Ser-Arg]” as the substance, how does the “% Tumor Inhibition” value read?
A: Its value is 100%.

Q: And the “Net Tumor weight” value?
A: The value was 0 g.
